Test [1] addresses cytoplasmic domain of human sortilin (K779-E831) in fusion with LexA (human) (UniProt Q99523). Description: two-hybrid; library screen: sortilin-cd bait (pB27, LexA) in yeast L40GAL4 mated with an adult human brain random-primed cDNA library in Y187; selection on -Leu/-Trp/-His.
Test [2] has the same target. The test is described as follows: two-hybrid; one-by-one tests of bait (pB27) and prey plasmids, spot plated on -Leu/-Trp/-His plates with 3-AT; plasmids without inserts as negative controls.
In test [3] the target is sortilin-cd S15A (Ser793 to Ala), yeast two-hybrid bait (human) (UniProt Q99523). The test is described as above.
Test [4] concerns the target sortilin-cd deletion mutant cd 1-27 (K779-D805) (human) (UniProt Q99523). The test is described as above.
Test [5] has as its target GST-tagged VHS domain of GGA2 (M1-L167) (human) (UniProt Q9UJY4). The test is described as follows: pull-down; GST fusion protein mixed with Triton X-100 lysate of transfected cells or human brain overnight at 4°C, captured on glutathione-Sepharose 4B, washed in 0.4 M NaCl buffer, Western blot; only the target purified. A general note: In western blotting, separated proteins are transferred to a membrane and probed.

Chains of the proteins cited; added tags and fusions are not shown. Lines headed by an entry give the natural chain unless they say otherwise; changes in a name come on top. A line that says so, or that is headed by a name, gives the form on record, which may keep a tag or linker. Residues count along the entry.
UniProt Q99523: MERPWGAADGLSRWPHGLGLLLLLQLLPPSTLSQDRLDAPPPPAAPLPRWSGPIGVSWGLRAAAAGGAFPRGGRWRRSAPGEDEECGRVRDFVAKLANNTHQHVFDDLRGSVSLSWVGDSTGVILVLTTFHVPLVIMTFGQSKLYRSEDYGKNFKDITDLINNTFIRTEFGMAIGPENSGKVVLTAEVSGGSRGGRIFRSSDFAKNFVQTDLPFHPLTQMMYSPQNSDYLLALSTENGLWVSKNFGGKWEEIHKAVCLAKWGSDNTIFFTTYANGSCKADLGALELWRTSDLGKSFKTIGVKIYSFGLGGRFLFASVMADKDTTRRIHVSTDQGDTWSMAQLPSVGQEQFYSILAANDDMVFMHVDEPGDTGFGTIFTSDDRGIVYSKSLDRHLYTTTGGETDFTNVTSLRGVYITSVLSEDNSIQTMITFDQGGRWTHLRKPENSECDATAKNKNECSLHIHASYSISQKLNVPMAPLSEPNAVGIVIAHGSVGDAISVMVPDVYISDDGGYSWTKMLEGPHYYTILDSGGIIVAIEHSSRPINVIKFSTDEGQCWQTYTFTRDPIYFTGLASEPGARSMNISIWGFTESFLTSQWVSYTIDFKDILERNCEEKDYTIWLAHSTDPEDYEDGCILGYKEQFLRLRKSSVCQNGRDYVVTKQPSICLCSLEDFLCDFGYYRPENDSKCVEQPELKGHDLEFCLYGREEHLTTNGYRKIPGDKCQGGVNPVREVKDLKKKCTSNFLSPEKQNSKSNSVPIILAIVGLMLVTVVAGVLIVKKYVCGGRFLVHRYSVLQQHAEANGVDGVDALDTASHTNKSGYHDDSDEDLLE
cytoplasmic domain of human sortilin (K779-E831) in fusion with LexA: residues 779-831 of Q99523
sortilin-cd deletion mutant cd 1-27 (K779-D805): residues 779-805 of Q99523
UniProt Q9UJY4, residues 1-167: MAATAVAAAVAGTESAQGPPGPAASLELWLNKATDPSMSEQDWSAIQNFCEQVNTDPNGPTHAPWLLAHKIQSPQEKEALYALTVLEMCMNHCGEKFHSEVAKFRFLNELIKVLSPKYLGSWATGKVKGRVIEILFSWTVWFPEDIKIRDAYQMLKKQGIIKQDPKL
UniProt Q13153: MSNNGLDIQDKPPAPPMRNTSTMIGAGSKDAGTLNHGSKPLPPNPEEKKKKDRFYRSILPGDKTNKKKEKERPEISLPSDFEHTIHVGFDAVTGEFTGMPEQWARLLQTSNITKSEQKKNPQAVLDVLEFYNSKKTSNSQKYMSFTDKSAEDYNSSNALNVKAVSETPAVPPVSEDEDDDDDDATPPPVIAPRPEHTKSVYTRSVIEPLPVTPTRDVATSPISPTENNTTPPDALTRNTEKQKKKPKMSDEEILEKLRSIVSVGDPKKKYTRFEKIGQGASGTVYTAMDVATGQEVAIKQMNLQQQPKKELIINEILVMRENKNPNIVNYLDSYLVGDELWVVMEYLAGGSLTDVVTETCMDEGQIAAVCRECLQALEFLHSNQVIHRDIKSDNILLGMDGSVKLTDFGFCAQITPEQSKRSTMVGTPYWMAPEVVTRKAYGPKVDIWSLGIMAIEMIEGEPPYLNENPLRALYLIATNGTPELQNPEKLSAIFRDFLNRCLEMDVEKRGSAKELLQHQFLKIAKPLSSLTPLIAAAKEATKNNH
GST-tagged PAK1 (Y270-H545): residues 270-545 of Q13153
PAK1-T271-H545 (yeast two-hybrid prey): residues 271-545 of Q13153
UniProt O75914, residues 311-559: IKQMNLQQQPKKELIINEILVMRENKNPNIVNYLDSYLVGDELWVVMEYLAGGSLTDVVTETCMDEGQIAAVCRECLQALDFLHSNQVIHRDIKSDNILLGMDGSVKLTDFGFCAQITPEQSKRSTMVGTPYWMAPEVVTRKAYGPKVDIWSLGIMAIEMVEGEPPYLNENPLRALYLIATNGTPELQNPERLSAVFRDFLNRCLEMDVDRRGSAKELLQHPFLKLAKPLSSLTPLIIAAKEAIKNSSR

In test [6] the target is GST-tagged PAK1 (Y270-H545) (human) (UniProt Q13153). The test is described as above.

These are yes or no findings as the source states them, for the method shown. For some assays here: Binding seen in cells or lysates may run through a third protein. Some binding calls cover weakened binding; strength is not graded here.

In the case of “PAK3-I317-R565 (yeast two-hybrid prey) (from UniProt O75914-4 317-565) (domain or fragment)”, the binding entry in test [1], in test [2] and in test [3] was “binds” throughout.
For “PAK1-T271-H545 (yeast two-hybrid prey) (from UniProt Q13153-1 271-545) (domain or fragment)”, the binding result in test [1], in test [2], in test [3] and in test [4] was “binds” each time.
Turning to “full-length human sortilin expressed in CHO cells (from UniProt Q99523-1 78-831) (receptor)”, the binding result in test [5] and in test [6] was “binds” throughout.
With “endogenous sortilin from human brain (from UniProt Q99523 78-831) (receptor)”, the binding result in test [5] and in test [6] was “binds” each time.

For the origin of these results see publication PMC6965034.
